Measurements reported in the supplement of paper PMC10849652.
Some of the results follow.

The chains behind the UniProt entries cited, without tags or fusion partners. Where a name states a change or a piece, a line headed by the entry shows the natural chain unless it says otherwise.
UniProt O75976: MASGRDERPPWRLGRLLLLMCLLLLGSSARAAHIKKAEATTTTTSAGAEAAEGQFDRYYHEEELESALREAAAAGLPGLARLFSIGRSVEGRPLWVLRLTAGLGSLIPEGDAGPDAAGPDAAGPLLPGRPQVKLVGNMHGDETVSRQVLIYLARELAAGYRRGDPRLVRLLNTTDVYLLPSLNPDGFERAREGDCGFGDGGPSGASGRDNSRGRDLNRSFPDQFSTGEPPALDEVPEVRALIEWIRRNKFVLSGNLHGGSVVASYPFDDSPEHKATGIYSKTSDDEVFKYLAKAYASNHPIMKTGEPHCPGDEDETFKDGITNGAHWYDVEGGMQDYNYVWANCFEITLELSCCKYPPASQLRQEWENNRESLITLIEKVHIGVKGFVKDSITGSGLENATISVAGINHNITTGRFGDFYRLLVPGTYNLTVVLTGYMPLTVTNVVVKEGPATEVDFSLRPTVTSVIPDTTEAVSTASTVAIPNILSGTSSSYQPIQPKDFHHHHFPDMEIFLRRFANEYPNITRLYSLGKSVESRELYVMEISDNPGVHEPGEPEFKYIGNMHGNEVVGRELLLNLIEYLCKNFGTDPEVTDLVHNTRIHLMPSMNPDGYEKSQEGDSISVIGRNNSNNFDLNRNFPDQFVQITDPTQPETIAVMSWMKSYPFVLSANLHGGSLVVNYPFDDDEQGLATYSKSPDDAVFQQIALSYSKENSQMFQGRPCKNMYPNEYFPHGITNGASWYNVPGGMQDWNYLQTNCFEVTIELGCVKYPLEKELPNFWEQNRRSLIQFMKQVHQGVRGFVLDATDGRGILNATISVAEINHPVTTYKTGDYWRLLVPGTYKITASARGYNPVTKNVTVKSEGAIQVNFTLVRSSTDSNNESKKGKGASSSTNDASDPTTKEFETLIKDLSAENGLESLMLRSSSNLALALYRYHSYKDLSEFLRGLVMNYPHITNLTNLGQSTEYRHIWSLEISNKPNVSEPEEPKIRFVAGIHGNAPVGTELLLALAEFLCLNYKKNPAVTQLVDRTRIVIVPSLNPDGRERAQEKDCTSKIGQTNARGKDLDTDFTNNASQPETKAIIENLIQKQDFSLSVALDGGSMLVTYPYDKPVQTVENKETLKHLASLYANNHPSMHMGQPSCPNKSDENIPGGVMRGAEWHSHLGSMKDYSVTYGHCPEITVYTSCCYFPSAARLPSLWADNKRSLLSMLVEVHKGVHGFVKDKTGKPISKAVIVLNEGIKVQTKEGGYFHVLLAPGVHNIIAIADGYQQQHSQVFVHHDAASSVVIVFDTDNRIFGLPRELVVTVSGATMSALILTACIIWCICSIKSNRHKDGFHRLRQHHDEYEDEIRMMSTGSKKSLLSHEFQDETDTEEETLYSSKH
UniProt Q8IYK4: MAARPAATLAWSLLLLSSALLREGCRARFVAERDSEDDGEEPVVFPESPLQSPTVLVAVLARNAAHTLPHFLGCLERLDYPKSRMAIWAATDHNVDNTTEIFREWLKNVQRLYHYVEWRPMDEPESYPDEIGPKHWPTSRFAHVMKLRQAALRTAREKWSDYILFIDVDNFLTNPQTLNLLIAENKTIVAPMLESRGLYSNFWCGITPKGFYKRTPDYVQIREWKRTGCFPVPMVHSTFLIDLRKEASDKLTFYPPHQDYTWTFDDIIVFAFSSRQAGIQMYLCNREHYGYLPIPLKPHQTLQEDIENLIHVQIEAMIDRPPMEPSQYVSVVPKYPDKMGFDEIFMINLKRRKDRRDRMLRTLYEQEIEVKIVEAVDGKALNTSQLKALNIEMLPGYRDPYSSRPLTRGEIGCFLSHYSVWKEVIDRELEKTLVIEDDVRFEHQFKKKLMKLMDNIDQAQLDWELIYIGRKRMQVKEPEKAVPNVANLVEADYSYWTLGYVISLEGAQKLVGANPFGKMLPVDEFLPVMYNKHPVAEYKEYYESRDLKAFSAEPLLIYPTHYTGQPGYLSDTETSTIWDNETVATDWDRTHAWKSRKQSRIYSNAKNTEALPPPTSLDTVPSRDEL
UniProt Q6PJW8: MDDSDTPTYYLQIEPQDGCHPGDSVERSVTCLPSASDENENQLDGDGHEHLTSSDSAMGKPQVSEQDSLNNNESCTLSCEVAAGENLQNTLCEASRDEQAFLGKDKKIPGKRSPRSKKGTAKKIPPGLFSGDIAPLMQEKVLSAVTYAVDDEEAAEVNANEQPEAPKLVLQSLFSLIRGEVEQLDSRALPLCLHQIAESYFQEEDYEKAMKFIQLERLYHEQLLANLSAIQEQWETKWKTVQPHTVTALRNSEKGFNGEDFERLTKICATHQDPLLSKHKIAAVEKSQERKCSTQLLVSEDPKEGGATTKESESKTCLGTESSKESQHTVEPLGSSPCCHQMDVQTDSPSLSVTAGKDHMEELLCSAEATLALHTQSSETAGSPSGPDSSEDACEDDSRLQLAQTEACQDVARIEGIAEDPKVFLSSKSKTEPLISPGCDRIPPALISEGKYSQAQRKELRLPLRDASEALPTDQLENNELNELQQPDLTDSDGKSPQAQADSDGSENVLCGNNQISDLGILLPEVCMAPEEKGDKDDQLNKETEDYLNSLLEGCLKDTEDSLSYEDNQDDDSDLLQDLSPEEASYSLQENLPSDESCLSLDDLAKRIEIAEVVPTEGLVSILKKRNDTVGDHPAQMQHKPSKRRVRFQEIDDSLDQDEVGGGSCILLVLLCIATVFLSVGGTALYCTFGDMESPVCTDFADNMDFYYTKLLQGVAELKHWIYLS
UniProt Q9Y678: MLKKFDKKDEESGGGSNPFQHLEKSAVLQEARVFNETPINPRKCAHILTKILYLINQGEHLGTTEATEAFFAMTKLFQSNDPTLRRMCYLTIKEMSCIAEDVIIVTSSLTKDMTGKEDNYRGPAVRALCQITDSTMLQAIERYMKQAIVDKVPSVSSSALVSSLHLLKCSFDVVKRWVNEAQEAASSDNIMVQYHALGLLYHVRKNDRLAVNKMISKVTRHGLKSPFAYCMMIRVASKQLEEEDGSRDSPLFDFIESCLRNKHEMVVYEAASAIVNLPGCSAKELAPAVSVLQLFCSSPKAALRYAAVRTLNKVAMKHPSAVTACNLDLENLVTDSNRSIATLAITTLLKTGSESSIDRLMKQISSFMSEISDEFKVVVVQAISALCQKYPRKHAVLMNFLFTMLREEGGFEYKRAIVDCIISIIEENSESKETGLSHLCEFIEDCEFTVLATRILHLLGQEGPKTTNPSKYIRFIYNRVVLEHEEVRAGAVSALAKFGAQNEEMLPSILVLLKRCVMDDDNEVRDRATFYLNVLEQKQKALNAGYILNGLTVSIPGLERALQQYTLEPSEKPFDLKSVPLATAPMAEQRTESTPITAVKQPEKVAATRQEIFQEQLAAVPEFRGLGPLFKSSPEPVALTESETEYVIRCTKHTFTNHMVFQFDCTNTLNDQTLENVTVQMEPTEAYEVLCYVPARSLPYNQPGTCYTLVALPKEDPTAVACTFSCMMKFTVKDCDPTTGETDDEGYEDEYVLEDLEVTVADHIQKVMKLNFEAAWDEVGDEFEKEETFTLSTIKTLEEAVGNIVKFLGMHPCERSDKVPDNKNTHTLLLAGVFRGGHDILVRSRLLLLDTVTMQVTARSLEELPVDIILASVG
UniProt P09669, whole entry, looked up: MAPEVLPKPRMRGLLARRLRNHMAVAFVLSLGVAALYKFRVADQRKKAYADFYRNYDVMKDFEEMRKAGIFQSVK
UniProt Q9UFF9, whole entry, looked up: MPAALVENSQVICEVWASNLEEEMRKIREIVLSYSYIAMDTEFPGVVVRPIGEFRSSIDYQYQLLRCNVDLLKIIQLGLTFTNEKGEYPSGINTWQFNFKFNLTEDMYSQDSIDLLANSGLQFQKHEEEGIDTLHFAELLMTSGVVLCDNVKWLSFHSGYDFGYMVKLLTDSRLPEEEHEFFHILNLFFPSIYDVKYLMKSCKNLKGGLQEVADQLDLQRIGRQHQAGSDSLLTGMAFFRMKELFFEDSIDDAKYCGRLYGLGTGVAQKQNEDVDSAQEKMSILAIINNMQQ
UniProt P15954, whole entry, looked up: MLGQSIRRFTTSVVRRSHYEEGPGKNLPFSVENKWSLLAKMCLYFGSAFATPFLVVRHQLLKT
UniProt Q92828: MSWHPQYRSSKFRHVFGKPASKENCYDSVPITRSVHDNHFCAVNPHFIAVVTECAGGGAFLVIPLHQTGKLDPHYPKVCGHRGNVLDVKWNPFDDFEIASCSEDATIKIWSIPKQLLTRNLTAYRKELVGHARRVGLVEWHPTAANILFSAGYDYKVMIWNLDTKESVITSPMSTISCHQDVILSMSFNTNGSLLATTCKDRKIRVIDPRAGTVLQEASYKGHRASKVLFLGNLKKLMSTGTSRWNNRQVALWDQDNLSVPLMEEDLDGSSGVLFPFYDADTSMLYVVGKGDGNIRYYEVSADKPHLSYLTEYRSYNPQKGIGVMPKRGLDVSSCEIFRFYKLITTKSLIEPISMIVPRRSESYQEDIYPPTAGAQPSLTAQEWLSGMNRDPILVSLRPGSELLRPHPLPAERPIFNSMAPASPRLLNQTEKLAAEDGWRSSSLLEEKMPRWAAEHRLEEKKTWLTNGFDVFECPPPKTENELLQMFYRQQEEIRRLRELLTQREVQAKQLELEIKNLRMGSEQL
UniProt P12074, whole entry, looked up: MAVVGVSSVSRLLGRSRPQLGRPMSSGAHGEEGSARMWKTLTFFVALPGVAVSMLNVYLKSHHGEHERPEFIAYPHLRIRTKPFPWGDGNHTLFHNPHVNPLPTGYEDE
UniProt Q9GZQ3, whole entry, looked up: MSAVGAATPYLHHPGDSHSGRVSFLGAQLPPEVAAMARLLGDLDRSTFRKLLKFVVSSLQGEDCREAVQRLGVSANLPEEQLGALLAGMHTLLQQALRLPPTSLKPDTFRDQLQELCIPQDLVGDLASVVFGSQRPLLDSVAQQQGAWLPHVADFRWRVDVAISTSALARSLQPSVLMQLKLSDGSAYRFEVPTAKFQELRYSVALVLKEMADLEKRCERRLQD
UniProt Q6QEF8, whole entry, looked up: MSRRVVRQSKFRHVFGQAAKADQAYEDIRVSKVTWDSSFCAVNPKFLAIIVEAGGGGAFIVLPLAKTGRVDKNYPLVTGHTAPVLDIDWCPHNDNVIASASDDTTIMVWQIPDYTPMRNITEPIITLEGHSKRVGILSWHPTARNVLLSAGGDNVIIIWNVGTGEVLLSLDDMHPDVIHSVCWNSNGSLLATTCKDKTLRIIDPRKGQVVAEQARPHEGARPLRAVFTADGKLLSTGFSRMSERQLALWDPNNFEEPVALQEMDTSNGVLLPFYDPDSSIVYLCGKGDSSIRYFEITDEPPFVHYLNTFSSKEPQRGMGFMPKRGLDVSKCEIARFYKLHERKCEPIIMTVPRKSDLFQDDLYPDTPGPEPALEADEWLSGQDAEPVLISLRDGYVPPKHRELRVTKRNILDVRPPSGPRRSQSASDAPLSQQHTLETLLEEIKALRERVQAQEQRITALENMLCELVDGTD

Assays:
Assay in all cases: log2 fold change, soluble protein after heating vs DMSO (PISA); higher = thermal stabilisation; K562 lysate, 10 uM; active = over 0.2 and 3.5 SD of the protein, either way, in both replicates (recomputed)
lapatinib = compound: CS(=O)(=O)CCNCc1ccc(-c2ccc3ncnc(Nc4ccc(OCc5cccc(F)c5)c(Cl)c4)c3c2)o1 [lapatinib]
Outline: (§1)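 To prepare the extract, K562 pellets were dounce-homogenised in PBS pH 7.4 with 1 mM MgCl2, giving crude material at 1 mg/mL protein. This was treated with 10 μM compound for 30 min, then heated in aliquots for 3 min over 48°C-58°C before pooling and addition of NP-40 to 0.5% at 4°C. Centrifugation at 21,000xg for 90 min left soluble protein in the supernatant, which TMTpro 16plex LC-MS/MS quantified with equalised channel sums. Results are log-two fold changes in thermal stability compared with solvent controls, from duplicates.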

pictilisib = compound: CS(=O)(=O)N1CCN(Cc2cc3nc(-c4cccc5[nH]ncc45)nc(N4CCOCC4)c3s2)CC1 [pictilisib]
Outline: as §1

crizotinib = compound: C[C@@H](Oc1cc(-c2cnn(C3CCNCC3)c2)cnc1N)c1c(Cl)ccc(F)c1Cl [crizotinib]
Outline: as §1

[1] = compound: C[C@H](C1=CC=C(C=C1)C(=O)NC2=C3C=CNC3=NC=C2)N
Outline: as §1

duvelisib = compound: C[C@H](Nc1ncnc2nc[nH]c12)c1cc2cccc(Cl)c2c(=O)n1-c1ccccc1 [duvelisib]
Outline: as §1

gandotinib = compound: Cc1cc(Nc2cc(CN3CCOCC3)c3nc(C)c(Cc4ccc(Cl)cc4F)n3n2)n[nH]1 [gandotinib]
Outline: as §1

tozasertib = compound: Cc1cc(Nc2cc(N3CCN(C)CC3)nc(Sc3ccc(NC(=O)C4CC4)cc3)n2)n[nH]1 [tozasertib]
Outline: as §1

doramapimod = compound: Cc1ccc(-n2nc(C(C)(C)C)cc2NC(=O)Nc2ccc(OCCN3CCOCC3)c3ccccc23)cc1 [doramapimod]
Outline: as §1

bafetinib = compound: Cc1ccc(NC(=O)c2ccc(CN3CC[C@H](N(C)C)C3)c(C(F)(F)F)c2)cc1Nc1nccc(-c2cncnc2)n1 [bafetinib]
Outline: as §1

[2] = compound: Cc1cccc(CC(=O)N2CCc3c2ccc(-c2cn(C)c4ncnc(N)c24)c3F)n1
Outline: as §1

nilotinib = compound: Cc1cn(-c2cc(NC(=O)c3ccc(C)c(Nc4nccc(-c5cccnc5)n4)c3)cc(C(F)(F)F)c2)cn1 [nilotinib]
Outline: as §1

[3] = compound: Cc1nc(Nc2n[nH]c3c2CN(C(=O)N[C@H](CN(C)C)c2ccccc2)C3(C)C)c2sccc2n1
Outline: as §1

dasatinib = compound: Cc1nc(Nc2ncc(C(=O)Nc3c(C)cccc3Cl)s2)cc(N2CCN(CCO)CC2)n1 [dasatinib]
Outline: as §1

[4] = compound: Cc1ncc(-c2ccnc(Nc3ccc(S(C)(=O)=O)cc3)n2)n1C(C)C
Outline: as §1

[5] = compound: Cn1cc(-c2ccc3c(c2)CCN3C(=O)Cc2cccc(C(F)(F)F)c2)c2c(N)ncnc21
Outline: as §1

quisinostat = compound: Cn1cc(CNCC2CCN(c3ncc(C(=O)NO)cn3)CC2)c2ccccc21 [quisinostat]
Outline: as §1

tipifarnib = compound: Cn1cncc1[C@@](N)(c1ccc(Cl)cc1)c1ccc2c(c1)c(-c1cccc(Cl)c1)cc(=O)n2C [tipifarnib]
Outline: as §1

[6] = compound: NC(=O)Nc1cc(-c2cccc(F)c2)sc1C(=O)N[C@H]1CCCNC1
Outline: as §1

[7] = compound: NC(=O)c1cnc(N[C@@H]2CCCC[C@@H]2N)nc1Nc1cccc(-n2nccn2)c1
Outline: as §1

[8] = compound: NC1(c2ccc(-c3nc4ccn5c(=O)[nH]nc5c4cc3-c3ccccc3)cc2)CCC1
Outline: as §1

Measured: log2 fold change

CPD (UniProt O75976)
inactive: lapatinib -0.03 | pictilisib -0.032 | crizotinib 0.01 | [1] -0.146 | duvelisib 0 | gandotinib 0.096 | tozasertib -0.023 | doramapimod -0.012 | bafetinib 0.018 | [2] 0.101 | nilotinib -0.003 | [3] -0.008 | dasatinib -0.003 | [4] -0.007 | [5] -0.017 | quisinostat -0.012 | tipifarnib 0.01 | [6] -0.008 | [7] -0.012 | [8] -0.053

COLGALT2 (UniProt Q8IYK4)
inactive: lapatinib -0.017 | pictilisib 0.01 | crizotinib 0.037 | [1] -0.004 | duvelisib -0.016 | gandotinib -0.022 | tozasertib 0.011 | doramapimod 0.002 | bafetinib -0.017 | [2] 0.017 | nilotinib 0.005 | [3] -0.012 | dasatinib 0.002 | [4] -0.014 | [5] 0.037 | quisinostat 0.028 | tipifarnib -0.001 | [6] 0.005 | [7] -0.008 | [8] -0.021

CNST (UniProt Q6PJW8)
inactive: lapatinib 0.005 | pictilisib 0 | crizotinib 0.031 | [1] -0.022 | duvelisib -0.007 | gandotinib 0.033 | tozasertib 0.019 | doramapimod 0.005 | bafetinib 0.033 | [2] 0.025 | nilotinib 0.125 | [3] 0.029 | dasatinib 0.023 | [4] -0.123 | [5] 0 | quisinostat -0.005 | tipifarnib 0.054 | [6] -0.002 | [7] 0 | [8] 0.041

COPG1 (UniProt Q9Y678)
inactive: lapatinib 0.003 | pictilisib -0.005 | crizotinib -0.007 | [1] -0.003 | duvelisib 0.006 | gandotinib -0.017 | tozasertib -0.012 | doramapimod 0.004 | bafetinib -0.03 | [2] 0.011 | nilotinib 0 | [3] -0.003 | dasatinib -0.01 | [4] 0.008 | [5] 0.009 | quisinostat 0.003 | tipifarnib -0.003 | [6] -0.017 | [7] -0.002 | [8] -0.003

COX6C (UniProt P09669)
inactive: lapatinib -0.014 | pictilisib -0.011 | crizotinib 0.078 | [1] -0.109 | duvelisib -0.039 | gandotinib 0.021 | tozasertib -0.035 | doramapimod -0.026 | bafetinib -0.008 | [2] 0.027 | nilotinib 0.031 | [3] 0 | dasatinib -0.007 | [4] 0.012 | [5] -0.014 | quisinostat 0.105 | tipifarnib 0.02 | [6] -0.015 | [7] -0.037 | [8] 0.016

CNOT8 (UniProt Q9UFF9)
inactive: lapatinib 0.079 | pictilisib -0.129 | crizotinib -0.015 | [1] -0.12 | duvelisib 0.06 | gandotinib 0.057 | tozasertib 0.017 | doramapimod -0.045 | bafetinib -0.093 | [2] 0.081 | nilotinib 0.018 | [3] -0.065 | dasatinib -0.189 | [4] 0.002 | [5] -0.023 | quisinostat -0.037 | tipifarnib -0.002 | [6] 0.051 | [7] 0.055 | [8] -0.013

COX7C (UniProt P15954)
inactive: lapatinib -0.038 | pictilisib 0.075 | crizotinib 0.001 | [1] 0.284 | duvelisib 0.018 | gandotinib -0.073 | tozasertib 0.031 | doramapimod 0.033 | bafetinib 0 | [2] -0.064 | nilotinib 0.039 | [3] 0.054 | dasatinib 0.058 | [4] 0.366 | [5] 0.019 | quisinostat 0.008 | tipifarnib -0.006 | [6] -0.021 | [7] 0.047 | [8] 0.036

CORO2A (UniProt Q92828)
inactive: lapatinib -0.018 | pictilisib -0.112 | crizotinib -0.057 | [1] -0.014 | duvelisib 0.041 | gandotinib 0.029 | tozasertib -0.006 | doramapimod 0.07 | bafetinib -0.107 | [2] -0.103 | nilotinib -0.045 | [3] -0.007 | dasatinib -0.033 | [4] 0.001 | [5] 0.074 | quisinostat -0.04 | tipifarnib 0.028 | [6] 0.021 | [7] 0.005 | [8] 0.057

COX6A1 (UniProt P12074)
inactive: lapatinib 0.025 | pictilisib -0.093 | crizotinib -0.091 | [1] -0.022 | duvelisib 0.038 | gandotinib 0.215 | tozasertib 0.009 | doramapimod 0.039 | bafetinib 0.177 | [2] -0.07 | nilotinib 0.093 | [3] -0.087 | dasatinib 0.084 | [4] -0.258 | [5] 0.104 | quisinostat 0.021 | tipifarnib -0.081 | [6] -0.101 | [7] -0.003 | [8] 0.17

COMMD5 (UniProt Q9GZQ3)
inactive: lapatinib 0.026 | pictilisib -0.067 | crizotinib -0.017 | [1] -0.03 | duvelisib -0.018 | gandotinib -0.011 | tozasertib 0.196 | doramapimod 0.023 | bafetinib 0.014 | [2] 0.017 | nilotinib -0.003 | [3] 0.035 | dasatinib -0.035 | [4] 0.006 | [5] 0.019 | quisinostat -0.03 | tipifarnib 0.051 | [6] -0.006 | [7] 0.006 | [8] -0.031

COL14A1 (UniProt Q05707)
inactive: lapatinib 0.071 | pictilisib -0.329 | crizotinib 0.016 | [1] 0.098 | duvelisib 0.067 | gandotinib 0.147 | doramapimod -0.089 | bafetinib 0.015 | [2] -0.007 | nilotinib 0.072 | [3] 0.134 | dasatinib 0.092 | [4] 0.07 | [5] -0.022 | quisinostat -0.03 | tipifarnib -0.085 | [6] -0.01 | [7] 0.063 | [8] -0.062

3 successive records out of the list so far:
CORO2A (UniProt Q92828)
inactive: lapatinib -0.018 | pictilisib -0.112 | crizotinib -0.057 | [1] -0.014 | duvelisib 0.041 | gandotinib 0.029 | tozasertib -0.006 | doramapimod 0.07 | bafetinib -0.107 | [2] -0.103 | nilotinib -0.045 | [3] -0.007 | dasatinib -0.033 | [4] 0.001 | [5] 0.074 | quisinostat -0.04 | tipifarnib 0.028 | [6] 0.021 | [7] 0.005 | [8] 0.057

COX6A1 (UniProt P12074)
inactive: lapatinib 0.025 | pictilisib -0.093 | crizotinib -0.091 | [1] -0.022 | duvelisib 0.038 | gandotinib 0.215 | tozasertib 0.009 | doramapimod 0.039 | bafetinib 0.177 | [2] -0.07 | nilotinib 0.093 | [3] -0.087 | dasatinib 0.084 | [4] -0.258 | [5] 0.104 | quisinostat 0.021 | tipifarnib -0.081 | [6] -0.101 | [7] -0.003 | [8] 0.17

COMMD5 (UniProt Q9GZQ3)
inactive: lapatinib 0.026 | pictilisib -0.067 | crizotinib -0.017 | [1] -0.03 | duvelisib -0.018 | gandotinib -0.011 | tozasertib 0.196 | doramapimod 0.023 | bafetinib 0.014 | [2] 0.017 | nilotinib -0.003 | [3] 0.035 | dasatinib -0.035 | [4] 0.006 | [5] 0.019 | quisinostat -0.03 | tipifarnib 0.051 | [6] -0.006 | [7] 0.006 | [8] -0.031

Additional records follow.

CORO6 isoform 5 (UniProt Q6QEF8)
inactive: lapatinib -0.06 | pictilisib 0.017 | crizotinib -0.111 | [1] 0.235 | gandotinib -0.287 | doramapimod 0.067 | bafetinib 0 | [2] -0.055 | nilotinib -0.01 | [3] 0.08 | [4] 0.087 | quisinostat -0.127 | tipifarnib -0.003 | [6] 0.079 | [7] -0.012
